Experimental data taken from patent publication JP2018108089A.
No constants are given. Whether binding was seen depends on the method and setting. Some binding calls cover weakened binding; strength is not graded here.

By UniProt entry, the sequences of proteins in these tests, tags left out. Residues count along the entry.
UniProt P10646, residues 29-304: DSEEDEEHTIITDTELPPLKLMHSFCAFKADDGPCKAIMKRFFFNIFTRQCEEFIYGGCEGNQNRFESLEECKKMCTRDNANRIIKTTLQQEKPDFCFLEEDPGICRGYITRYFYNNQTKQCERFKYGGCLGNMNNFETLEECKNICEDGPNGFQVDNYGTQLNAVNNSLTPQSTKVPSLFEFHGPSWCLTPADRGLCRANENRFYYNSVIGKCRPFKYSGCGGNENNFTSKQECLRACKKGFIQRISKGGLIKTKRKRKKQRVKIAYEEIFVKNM

Biological target: human tissue factor pathway inhibitor (TFPI) (human) (UniProt P10646)
Experiment: ELISA, Fab from bacterial lysate on coated human TFPI

Binder	binding
TP-2A2 (Fab, V domains shown) VH: QVQLVESGGGLVQPGGSLRLSCAASGFTFSNNAMNWVRQAPGKGLEWVSTISYDGSNTYYADSVKGRFTISRDNSKNTLYLQMNSLRAEDTAVYYCARQAGGWTYSYTDVWGQGTLVTVSS VL: DIELTQPPSVSVAPGQTARISCSGDNIRTYYVHWYQQKPGQAPVVVIYGDSKRPSGIPERFSGSNSGNTATLTISGTQAEDEADYYCQSYDSEADSEVFGGGTKLTVLG	binds
TP-2B9 (Fab, V domains shown) VH: QVQLQQSGPGLVKPSQTLSLTCAISGDSVSSNSAAWGWIRQSPGRGLEWLGMIYHRSKWYNDYAVSVKSRITINPDTSKNQFSLQLNSVTPEDTAVYYCARYSSIGHMDYWGQGTLVTVSS VL: DIQMTQSPSSLSASVGDRVTITCRASQSIRSYLAWYQQKPGKAPKLLIYKASNLQSGVPSRFSGSGSGTDFTLTISSLQPEDFAVYYCHQYSDSPVTFGQGTKVEIKR	binds
TP-2C1 (Fab, V domains shown) VH: QVQLVESGGGLVQPGGSLRLSCAASGFTFSPYVMSWVRQAPGKGLEWVSSISSSSSNTYYADSVKGRFTISRDNSKNTLYLQMNSLRAEDTAVYYCARGDSYMYDVWGQGTLVTVSS VL: DIELTQPPSVSVAPGQTARISCSGDSIGSYYAHWYQQKPGQAPVLVIYYDSKRPSGIPERFSGSNSGNTATLTISGTQAEDEADYYCQAYTGQSISRVFGGGTKLTVLG	binds
TP-2C7 (Fab, V domains shown) VH: QVQLQQSGPGLVKPSQTLSLTCAISGDSVSSNSAAWGWIRQSPGRGLEWLGIIYYRSKWYNHYAVSVKSRITINPDTSKNQFSLQLNSVTPEDTAVYYCARSNWSGYFDYWGQGTLVTVSS VL: DIQMTQSPSSLSASVGDRVTITCRASQDIRNNLAWYQQKPGKAPKLLIYAASSLQSGVPSRFSGSGSGTDFTLTISSLQPEDFAVYYCQQRNGFPLTFGQGTKVEIKR	binds
TP-2E3 (Fab, V domains shown) VH: QVQLQQSGPGLVKPSQTLSLTCAISGDSVSSNSAAWGWIRQSPGRGLEWLGMIYYRSKWYNDYAVSVKSRITINPDTSKNQFSLQLNSVTPEDTAVYYCARVNQYTSSDYWGQGTLVTVSS VL: DIALTQPASVSGSPGQSITISCTGTSSDIGGYNYVSWYQQHPGKAPKLMIYGVNYRPSGVSNRFSGSKSGNTASLTISGLQAEDEADYYCSSADKFTMSIVFGGGTKLTVLG	binds
TP-2E5 (Fab, V domains shown) VH: QVQLQQSGPGLVKPSQTLSLTCAISGDSVSSNSAAWSWIRQSPGRGLEWLGMIFYRSKWNNDYAVSVKSRITINPDTSKNQFSLQLNSVTPEDTAVYYCARVNANGYYAYVDLWGQGTLVTVSS VL: DIQMTQSPSSLSASVGDRVTITCRASQPIYNSLSWYQQKPGKAPKLLIYGVSNLQSGVPSRFSGSGSGTDFTLTISSLQPEDFAVYYCLQVDNLPITFGQGTKVEIKR	binds
TP-2G2 (Fab, V domains shown) VH: QVQLVESGGGLVQPGGSLRLSCAASGFTFSSYAMNWVRQAPGKGLEWVSAILSDGSSTSYADSVKGRFTISRDNSKNTLYLQMNSLRAEDTAVYYCARYPDWGWYTDVWGQGTLVTVSS VL: DIELTQPPSVSVAPGQTARISCSGDNIRKFYVHWYQQKPGQAPVLVIYGTNKRPSGIPERFSGSNSGNTATLTISGTQAEDEADYYCQSYDSKFNTVFGGGTKLTVLG	binds
TP-2G4 (Fab, V domains shown) VH: QVQLVESGGGLVQPGGSLRLSCAASGFTFSSYAMTWVRQAPGKGLEWVSNISYSGSNTYYADSVKGRFTISRDNSKNTLYLQMNSLRAEDTAVYYCARVGYYYGFDYWGQGTLVTVSS VL: DIELTQPPSVSVAPGQTARISCSGDALRKHYVYWYQQKPGQAPVLVIYGDNNRPSGIPERFSGSNSGNTATLTISGTQAEDEADYYCQSYDKPYPILVFGGGTKLTVLG	binds
TP-2A5.1 (Fab, V domains shown) VH: QVQLVESGGGLVQPGGSLRLSCAASGFTFSSYGSWVRQAPGKGLEWVSVISGSGSSTYYADSVKGRFTISRDNSKNTLYLQMNSLRAEDTAVYYCARVNISTHFDVWGQGTLVTVSS VL: DIELTQPPSVSVAPGQTARISCSGDNIPEKYVHWYQQKPGQAPVLVIHGDNNRPSGIPERFSGSNSGNTATLTISGTQAEDEADYYCQSFDAGSYFVFGGGTKLTVLG	binds
TP-2G6 (Fab, V domains shown) VH: QVQLQQSGPGLVKPSQTLSLTCAISGDSVSSSSAAWSWIRQSPGRGLEWLGIIYYRSKWYNDYAVSVKSRITINPDTSKNQFSLQLNSVTPEDTAVYYCARHSMVGFDVWGQGTLVTVSS VL: DIVLTQSPATLSLSPGERATLSCRASQYVTSSYLAWYQQKPGQAPRLLIYGSSRATGVPARFSGSGSGTDFTLTISSLEPEDFATYYCQQYSSSPITFGQGTKVEIKR	binds
TP-2G7 (Fab, V domains shown) VH: QVQLVESGGGLVQPGGSLRLSCAASGFTFNSYAMSWVRQAPGKGLEWVSNISSNSSNTYYADSVKGRFTISRDNSKNTLYLQMNSLRAEDTAVYYCARKGGGEHGFFPSDIWGQGTLVTVSS VL: DIELTQPPSVSVAPGQTARISCSGDNLGTYYVHWYQQKPGQAPVLVIYGDNNRPSGIPERFSGSNSGNTATLTISGTQAEDEADYYCQTYDSNNESIVFGGGTKLTVLG	binds
TP-2G9 (Fab, V domains shown) VH: QVQLVESGGGLVQPGGSLRLSCAASGFTFNSYAMTWVRQAPGKGLEWVSAIKSDGSNTYYADSVKGRFTISRDNSKNTLYLQMNSLRAEDTAVYYCARNDSGWFDVWGQGTLVTVSS VL: DIALTQPASVSGSPGQSITISCTGTSSDLGGFNTVSWYQQHPGKAPKLMIYSVSSRPSGVSNRFSGSKSGNTASLTISGLQAEDEADYYCQSYDLNNLVFGGGTKLTVLG	binds
TP-3A2 (Fab, V domains shown) VH: QVQLVESGGGLVQPGGSLRLSCAASGFTFSNYYLSWVRQAPGKGLEWVSGISYNGSSTNYADSVKGRFTISRDNSKNTLYLQMNSLRAEDTAVYYCARMWRYSLGADSWGQGTLVTVSS VL: DIELTQPPSVSVAPGQTARISCSGDNIGSRYAYWYQQKPGQAPVVVIYDDSDRPSGIPERFSGSNSGNTATLTISGTQAEDEADYYCAAYTFYARTVFGGGTKLTVLG	binds
TP-3A3 (Fab, V domains shown) VH: QVQLVESGGGLVQPGGSLRLSCAASGFTFNNNAISWVRQAPGKGLEWVSAINSSSSSTSYADSVKGRFTISRDNSKNTLYLQMNSLRAEDTAVYYCARGHHRGHSWASFIDYWGQGTLVTVSS VL: DIELTQPPSVSVAPGQTARISCSGDNIGSKYVHWYQQKPGQAPVVVIYEDSDRPSGIPERFSGSNSGNTATLTISGTQAEDEADYYCQSWDKSEGYVFGGGTKLTVLG	binds
TP-3A4 (Fab, V domains shown) VH: QVQLVESGGGLVQPGGSLRLSCAASGFTFSSYWMHWVRQAPGKGLEWVSSISYDSSNTYYADSVKGRFTISRDNSKNTLYLQMNSLRAEDTAVYYCARYGGMDYWGQGTLVTVSS VL: DIELTQPPSVSVAPGQTARISCSGDNLRDKYASWYQQKPGQAPVLVIYSKSERPSGIPERFSGSNSGNTATLTISGTQAEDEADYYCSSYTLNPNLNYVFGGGTKLTVLG	binds
TP-3B3 (Fab, V domains shown) VH: QVQLVESGGGLVQPGGSLRLSCAASGFTFSSYGMHWVRQAPGKGLEWVSNISYMGSNTNYADSVKGRFTISRDNSKNTLYLQMNSLRAEDTAVYYCARGLFPGYFDYWGQGTLVTVSS VL: DIELTQPASVSVAPGQTARISCSGDNLRSKYAHWYQQKPGQAPVLVIYGDNNRPSGIPERFSGSNSGNTATLTISGTQAEDEADYYCSAYAMGSSPVFGGGTKLTVLG	binds
TP-3B4 (Fab, V domains shown) VH: QVQLQQSGPGLVKPSQTLSLTCAISGDSVSSNGAAWGWIRQSPGRGLEWLGHIYYRSKWYNSYAVSVKSRITINPDTSKNQFSLQLNSVTPEDTAVYYCARWGGIHDGDIYFDYWGQGTLVTVSS VL: DIQMTQSPSSLSASVGDRVTITCRASQNISNYLNWYQQKPGKAPKLLIYGTSSLQSGVPSRFSGSGSGTDFTLTISSLQPEDFAVYYCQQYGNNPTTFGQGTKVEIKR	binds
TP-3C1 (Fab, V domains shown) VH: QVQLVESGGGLVQPGGSLRLSCAASGFTFSSYSMHWVRQAPGKGLEWVSGISYSSSFTYYADSVKGRFTISRDNSKNTLYLQMNSLRAEDTAVYYCARALGGGVDYWGQGTLVTVSS VL: DIALTQPASVSGSPGQSITISCTGTSSDLGGFNTVSWYQQHPGKAPKLMIYSVSSRPSGVSNRFSGSKSGNTASLTISGLQAEDEADYYCQSYDLNNLVFGGGTKLTVLG	binds
TP-2A6 (Fab, V domains shown) VH: QVQLVESGGGLVQPGGSLRLSCAASGFTFSRYAMSWVRQAPGKGLEWVSSIISSSSETYYADSVKGRFTISRDNSKNTLYLQMNSLRAEDTAVYYCARLMGYGHYYPFDYWGQGTLVTVSS VL: DIELTQPPSVSVAPGQTARISCSGDKIGSKYVYWYQQKPGQAPVLVIYDSNRPSGIPERFSGSNSGNTATLTISGTQAEDEADYYCASYDSIYSYWVFGGGTKLTVLG	binds
TP-3C2 (Fab, V domains shown) VH: QVQLQQSGPGLVKPSQTLSLTCAISGDSVSSSSAAWSWIRQSPGRGLEWLGMIYYRSKWYNHYAVSVKSRITINPDTSKNQFSLQLNSVTPEDTAVYYCARGGSGVMDVWGQGTLVTVSS VL: DIQMTQSPSSLSASVGDRVTITCRASQSITNYLNWYQQKPGKAPKLLIYDVSNLQSGVPSRFSGSGSGTDFTLTISSLQPEDFAVYYCQQYSGYPLTFGQGTKVEIKR	binds
TP-3C3 (Fab, V domains shown) VH: QVQLQQSGPGLVKPSQTLSLTCAISGDSVSSNSAAWGWIRQSPGRGLEWLGVIYYRSKWYNDYAVSVKSRITINPDTSKNQFSLQLNSVTPEDTAVYYCARARAKKSGGFDYWGQGTLVTVSS VL: DIQMTQSPSSLSASVGDRVTITCRASQSINPYLNWYQQKPGKAPKLLIYAASNLQSGVPSRFSGSGSGTDFTLTISSLQPEDFAVYYCQQLDNRSITFGQGTKVEIKR	binds
TP-3D3 (Fab, V domains shown) VH: QVQLVESGGGLVQPGGSLRLSCAASGFTFSSYASWVRQAPGKGLEWVSGISGDGSNTHYADSVKGRFTISRDNSKNTLYLQMNSLRAEDTAVYYCARYDNFYFDVWGQGTLVTVSS VL: DIELTQPPSVSVAPGQTARISCSGDSLGSKFAHWYQQKPGQAPVLVIYDDSNRPSGIPERFSGSNSGNTATLTISGTQAEDEADYYCSTYTSRSHSYVFGGGTKLTVLG	binds
